Measured values as given in the supplement of paper PMC12823440, “Inhibitors supercharge kinase turnover through native proteolytic circuits” (Nature, 2025).
Where a name gives a salt, the structure may show the parent alone. Some of the results follow. Hit calls seldom repeat between salt and free forms of one compound.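 In K562 cells expressing nanoluciferase-fused kinases, luminescence was recorded at 4 h intervals between 2 and 18 h, normalized as percent of control with DMSO at 100% and a positive control at 0%. A significant (2 sigma) signal drop marks a time point as decreased. The authors' rule for a hit is not shown and takes in more than the number of time points.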

Protein sequences, listed by entry. Tags and fused reporters are not part of them. Lines headed by an entry give the natural chain unless they say otherwise; changes in a name come on top.
UniProt Q9Y616: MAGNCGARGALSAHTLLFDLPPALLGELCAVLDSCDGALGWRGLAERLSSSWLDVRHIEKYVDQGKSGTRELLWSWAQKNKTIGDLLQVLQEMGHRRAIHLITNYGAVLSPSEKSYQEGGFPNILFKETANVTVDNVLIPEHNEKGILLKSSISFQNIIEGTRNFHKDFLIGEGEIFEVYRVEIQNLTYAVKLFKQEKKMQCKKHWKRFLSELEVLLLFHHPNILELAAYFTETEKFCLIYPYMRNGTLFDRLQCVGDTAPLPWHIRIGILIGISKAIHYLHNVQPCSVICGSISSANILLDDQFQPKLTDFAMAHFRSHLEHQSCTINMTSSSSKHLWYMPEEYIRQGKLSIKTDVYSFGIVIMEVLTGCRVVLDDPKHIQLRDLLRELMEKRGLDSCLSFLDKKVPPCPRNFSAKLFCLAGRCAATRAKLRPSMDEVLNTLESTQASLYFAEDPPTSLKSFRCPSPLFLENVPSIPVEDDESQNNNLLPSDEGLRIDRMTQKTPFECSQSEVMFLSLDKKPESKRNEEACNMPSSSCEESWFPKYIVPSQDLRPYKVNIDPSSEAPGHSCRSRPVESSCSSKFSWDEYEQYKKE
UniProt P23458: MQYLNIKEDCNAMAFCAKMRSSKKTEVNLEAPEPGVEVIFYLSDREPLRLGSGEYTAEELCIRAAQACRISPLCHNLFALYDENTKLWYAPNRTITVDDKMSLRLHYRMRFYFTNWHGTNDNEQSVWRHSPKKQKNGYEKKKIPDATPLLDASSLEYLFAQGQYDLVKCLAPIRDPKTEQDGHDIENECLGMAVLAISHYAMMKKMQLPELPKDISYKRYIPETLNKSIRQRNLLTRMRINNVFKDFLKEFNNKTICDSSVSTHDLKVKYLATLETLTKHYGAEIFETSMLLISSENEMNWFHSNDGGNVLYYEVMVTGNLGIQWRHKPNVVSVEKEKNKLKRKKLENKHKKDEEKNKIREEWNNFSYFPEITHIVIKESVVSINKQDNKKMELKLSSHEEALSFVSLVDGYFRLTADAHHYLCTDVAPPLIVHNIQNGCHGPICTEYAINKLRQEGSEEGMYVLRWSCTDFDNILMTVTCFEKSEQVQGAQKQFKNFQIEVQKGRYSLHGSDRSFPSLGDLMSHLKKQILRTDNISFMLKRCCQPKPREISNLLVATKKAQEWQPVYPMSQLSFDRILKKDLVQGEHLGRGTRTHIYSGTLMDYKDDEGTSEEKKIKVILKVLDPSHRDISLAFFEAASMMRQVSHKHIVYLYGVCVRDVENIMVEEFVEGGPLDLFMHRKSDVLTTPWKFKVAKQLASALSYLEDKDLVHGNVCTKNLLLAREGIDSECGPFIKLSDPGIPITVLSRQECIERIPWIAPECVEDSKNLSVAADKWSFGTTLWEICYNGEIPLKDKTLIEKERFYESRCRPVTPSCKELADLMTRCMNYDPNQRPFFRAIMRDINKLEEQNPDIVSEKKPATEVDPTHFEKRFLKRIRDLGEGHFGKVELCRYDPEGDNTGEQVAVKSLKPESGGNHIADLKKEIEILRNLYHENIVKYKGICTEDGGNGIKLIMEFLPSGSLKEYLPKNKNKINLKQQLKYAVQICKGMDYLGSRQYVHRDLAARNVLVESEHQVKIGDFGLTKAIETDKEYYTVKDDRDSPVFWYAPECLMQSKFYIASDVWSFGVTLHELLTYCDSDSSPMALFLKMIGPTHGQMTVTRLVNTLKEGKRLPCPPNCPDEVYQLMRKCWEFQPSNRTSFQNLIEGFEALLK
UniProt P06239: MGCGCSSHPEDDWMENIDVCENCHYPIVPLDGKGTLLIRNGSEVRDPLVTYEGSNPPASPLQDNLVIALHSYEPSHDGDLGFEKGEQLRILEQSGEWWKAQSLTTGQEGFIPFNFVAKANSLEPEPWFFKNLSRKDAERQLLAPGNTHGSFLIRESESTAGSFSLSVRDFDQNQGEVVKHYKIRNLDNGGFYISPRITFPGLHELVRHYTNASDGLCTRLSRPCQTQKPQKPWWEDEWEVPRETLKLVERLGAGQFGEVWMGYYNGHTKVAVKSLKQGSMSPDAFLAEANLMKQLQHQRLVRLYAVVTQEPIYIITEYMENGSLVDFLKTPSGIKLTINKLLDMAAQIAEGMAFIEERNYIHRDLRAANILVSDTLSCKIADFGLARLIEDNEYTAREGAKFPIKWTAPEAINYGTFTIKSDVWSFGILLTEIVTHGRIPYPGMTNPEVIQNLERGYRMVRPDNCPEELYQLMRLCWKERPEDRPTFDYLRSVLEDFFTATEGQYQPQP
UniProt P53667: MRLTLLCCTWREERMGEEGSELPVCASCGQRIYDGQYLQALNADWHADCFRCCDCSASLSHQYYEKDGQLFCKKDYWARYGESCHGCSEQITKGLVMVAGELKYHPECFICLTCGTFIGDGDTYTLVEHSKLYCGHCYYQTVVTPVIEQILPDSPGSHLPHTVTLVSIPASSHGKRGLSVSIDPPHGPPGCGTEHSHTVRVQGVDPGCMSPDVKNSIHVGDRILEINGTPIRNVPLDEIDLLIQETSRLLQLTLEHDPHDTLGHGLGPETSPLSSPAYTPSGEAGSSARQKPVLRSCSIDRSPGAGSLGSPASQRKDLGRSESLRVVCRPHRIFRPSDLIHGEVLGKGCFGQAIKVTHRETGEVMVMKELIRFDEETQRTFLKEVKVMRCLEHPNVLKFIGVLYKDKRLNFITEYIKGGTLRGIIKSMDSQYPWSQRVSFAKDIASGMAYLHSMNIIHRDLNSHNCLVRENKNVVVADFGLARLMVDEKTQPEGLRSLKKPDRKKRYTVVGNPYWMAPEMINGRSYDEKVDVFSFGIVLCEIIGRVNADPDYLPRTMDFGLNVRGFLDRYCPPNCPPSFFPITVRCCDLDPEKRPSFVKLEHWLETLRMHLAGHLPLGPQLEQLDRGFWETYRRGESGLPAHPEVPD
UniProt P53671: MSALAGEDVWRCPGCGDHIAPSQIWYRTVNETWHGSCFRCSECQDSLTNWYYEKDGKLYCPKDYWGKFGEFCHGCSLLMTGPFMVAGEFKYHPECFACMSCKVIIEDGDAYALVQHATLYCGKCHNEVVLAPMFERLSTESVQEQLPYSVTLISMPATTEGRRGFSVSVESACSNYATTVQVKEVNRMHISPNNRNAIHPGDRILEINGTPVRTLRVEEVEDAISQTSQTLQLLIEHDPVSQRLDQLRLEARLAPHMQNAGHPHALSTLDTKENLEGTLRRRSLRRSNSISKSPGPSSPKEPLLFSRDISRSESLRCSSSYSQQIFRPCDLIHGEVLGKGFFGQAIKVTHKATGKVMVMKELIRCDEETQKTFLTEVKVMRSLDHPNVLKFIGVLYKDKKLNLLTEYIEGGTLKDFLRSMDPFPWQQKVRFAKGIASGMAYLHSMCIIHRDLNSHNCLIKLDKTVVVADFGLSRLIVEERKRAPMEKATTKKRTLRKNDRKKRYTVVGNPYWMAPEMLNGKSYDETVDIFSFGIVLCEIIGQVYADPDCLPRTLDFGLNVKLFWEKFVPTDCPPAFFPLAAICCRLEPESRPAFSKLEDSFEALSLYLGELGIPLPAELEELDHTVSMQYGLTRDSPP
UniProt Q8IWU2: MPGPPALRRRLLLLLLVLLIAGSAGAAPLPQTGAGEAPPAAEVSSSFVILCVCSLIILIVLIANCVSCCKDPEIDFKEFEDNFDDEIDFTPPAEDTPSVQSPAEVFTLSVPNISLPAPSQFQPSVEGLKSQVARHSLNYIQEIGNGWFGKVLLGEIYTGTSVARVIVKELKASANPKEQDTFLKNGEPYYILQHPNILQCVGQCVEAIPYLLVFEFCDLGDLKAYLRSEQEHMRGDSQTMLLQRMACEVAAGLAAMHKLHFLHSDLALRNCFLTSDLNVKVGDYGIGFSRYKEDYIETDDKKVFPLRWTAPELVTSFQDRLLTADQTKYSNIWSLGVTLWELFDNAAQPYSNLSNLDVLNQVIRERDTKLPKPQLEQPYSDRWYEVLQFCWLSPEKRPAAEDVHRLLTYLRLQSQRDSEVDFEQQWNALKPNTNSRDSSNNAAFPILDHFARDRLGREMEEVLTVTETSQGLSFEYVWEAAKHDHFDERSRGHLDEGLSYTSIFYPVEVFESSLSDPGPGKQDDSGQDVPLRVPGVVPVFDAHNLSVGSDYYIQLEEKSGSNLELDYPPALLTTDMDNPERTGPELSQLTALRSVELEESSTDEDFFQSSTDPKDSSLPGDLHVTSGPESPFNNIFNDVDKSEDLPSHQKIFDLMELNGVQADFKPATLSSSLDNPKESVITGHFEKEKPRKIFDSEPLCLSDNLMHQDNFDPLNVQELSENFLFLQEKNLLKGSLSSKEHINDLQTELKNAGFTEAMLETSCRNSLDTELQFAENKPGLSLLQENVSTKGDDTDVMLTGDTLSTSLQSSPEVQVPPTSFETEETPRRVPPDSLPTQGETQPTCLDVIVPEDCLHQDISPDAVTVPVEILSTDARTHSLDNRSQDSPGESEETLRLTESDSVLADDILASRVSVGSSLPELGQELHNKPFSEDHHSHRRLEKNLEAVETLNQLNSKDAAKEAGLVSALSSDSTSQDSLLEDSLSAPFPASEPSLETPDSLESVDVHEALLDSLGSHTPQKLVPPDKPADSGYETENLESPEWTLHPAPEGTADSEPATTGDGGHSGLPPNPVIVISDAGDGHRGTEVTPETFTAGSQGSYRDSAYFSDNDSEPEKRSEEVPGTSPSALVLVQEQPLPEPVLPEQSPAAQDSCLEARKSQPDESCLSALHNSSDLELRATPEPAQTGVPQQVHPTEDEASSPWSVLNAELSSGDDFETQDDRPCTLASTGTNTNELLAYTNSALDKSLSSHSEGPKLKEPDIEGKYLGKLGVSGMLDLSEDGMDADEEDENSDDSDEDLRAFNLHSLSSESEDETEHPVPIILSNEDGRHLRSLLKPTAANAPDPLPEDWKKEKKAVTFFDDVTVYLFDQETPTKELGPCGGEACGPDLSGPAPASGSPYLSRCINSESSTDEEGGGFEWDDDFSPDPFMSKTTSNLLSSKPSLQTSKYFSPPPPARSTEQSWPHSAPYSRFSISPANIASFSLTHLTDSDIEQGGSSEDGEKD
UniProt P07948: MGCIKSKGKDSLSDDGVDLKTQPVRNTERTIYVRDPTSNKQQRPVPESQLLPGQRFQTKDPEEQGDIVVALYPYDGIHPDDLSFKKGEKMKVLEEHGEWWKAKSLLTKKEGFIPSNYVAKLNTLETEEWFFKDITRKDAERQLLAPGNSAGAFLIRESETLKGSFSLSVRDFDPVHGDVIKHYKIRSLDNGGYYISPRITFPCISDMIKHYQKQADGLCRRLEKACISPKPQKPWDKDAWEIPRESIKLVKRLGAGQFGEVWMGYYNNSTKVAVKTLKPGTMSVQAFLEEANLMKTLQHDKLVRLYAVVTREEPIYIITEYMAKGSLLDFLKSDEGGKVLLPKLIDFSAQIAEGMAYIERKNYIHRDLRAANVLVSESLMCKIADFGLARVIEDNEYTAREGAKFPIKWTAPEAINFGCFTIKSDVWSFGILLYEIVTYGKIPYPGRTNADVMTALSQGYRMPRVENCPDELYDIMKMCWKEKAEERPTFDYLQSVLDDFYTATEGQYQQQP
UniProt Q12851: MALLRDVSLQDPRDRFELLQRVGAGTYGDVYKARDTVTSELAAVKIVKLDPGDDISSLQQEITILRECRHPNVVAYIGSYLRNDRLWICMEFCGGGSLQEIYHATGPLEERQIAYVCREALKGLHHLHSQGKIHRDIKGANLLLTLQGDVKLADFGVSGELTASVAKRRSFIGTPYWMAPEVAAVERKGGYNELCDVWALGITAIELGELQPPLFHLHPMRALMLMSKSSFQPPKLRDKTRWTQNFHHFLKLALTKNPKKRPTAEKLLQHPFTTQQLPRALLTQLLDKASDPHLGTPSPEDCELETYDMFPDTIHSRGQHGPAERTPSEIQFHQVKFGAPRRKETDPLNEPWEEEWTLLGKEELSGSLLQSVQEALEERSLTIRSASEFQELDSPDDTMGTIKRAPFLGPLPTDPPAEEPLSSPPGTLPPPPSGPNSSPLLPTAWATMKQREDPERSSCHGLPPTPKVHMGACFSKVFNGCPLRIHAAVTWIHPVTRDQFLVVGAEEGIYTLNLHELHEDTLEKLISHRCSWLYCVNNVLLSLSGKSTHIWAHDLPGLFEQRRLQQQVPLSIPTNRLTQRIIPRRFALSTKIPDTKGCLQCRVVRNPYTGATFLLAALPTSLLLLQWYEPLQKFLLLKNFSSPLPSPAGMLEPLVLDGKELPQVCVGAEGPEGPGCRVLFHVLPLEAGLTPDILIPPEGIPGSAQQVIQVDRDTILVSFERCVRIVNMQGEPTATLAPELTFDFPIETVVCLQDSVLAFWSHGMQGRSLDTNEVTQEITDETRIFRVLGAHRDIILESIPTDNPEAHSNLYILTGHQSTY

What was measured:
Test in all cases: kinase-Nluc reporter destabilization hit call (1 = scored as downregulated) (binary); higher = compound decreases kinase abundance
Details in all cases: K562, 2-18 h
[1] = target: IRAK3 (UniProt Q9Y616)
[2] = target: JAK1 (UniProt P23458)
[3] = target: LCK (UniProt P06239)
[4] = target: LIMK1 (UniProt P53667)
[5] = target: LIMK2 (UniProt P53671)
[6] = target: LMTK2 (UniProt Q8IWU2)
[7] = target: LYN (UniProt P07948)
[8] = target: MAP2K1 (UniProt Q02750)
[9] = target: MAP2K2 (UniProt P36507)
[10] = target: MAP4K2 (UniProt Q12851)

Measured: kinase-Nluc reporter destabilization hit call

CC(C)[C@@](C)(O)[C@@H]1CN(c2nc(-c3[nH]nc4ncccc34)c(F)cc2Cl)CCN1
inactive: [1]; 10 µM 0 | [2]; 10 µM 0 | [3]; 10 µM 0 | [4]; 10 µM 0 | [5]; 10 µM 0 | [6]; 10 µM 0 | [7]; 10 µM 0 | [8]; 10 µM 0 | [9]; 10 µM 0 | [10]; 10 µM 0

C[C@H]1Oc2cc(cnc2N)-c2c(nn(C)c2C#N)CN(C)C(=O)c2ccc(F)cc21 [Lorlatinib]
inactive: [1]; 10 µM 0 | [2]; 10 µM 0 | [3]; 10 µM 0 | [4]; 10 µM 0 | [5]; 10 µM 0 | [6]; 10 µM 0 | [7]; 10 µM 0 | [8]; 10 µM 0 | [9]; 10 µM 0 | [10]; 10 µM 0

CCCCCC1CC1CC1CC1CCCCCCCC(=O)OC (stereo not given)
inactive: [1]; 10 µM 0 | [2]; 10 µM 0 | [3]; 10 µM 0 | [4]; 10 µM 0 | [5]; 10 µM 0 | [6]; 10 µM 0 | [7]; 10 µM 0 | [8]; 10 µM 0 | [9]; 10 µM 0 | [10]; 10 µM 0

Fc1ccc(-c2nc(-c3ccc4ccccc4c3F)[nH]c2-c2ccncc2)cc1
inactive: [1]; 10 µM 0 | [2]; 10 µM 0 | [3]; 10 µM 0 | [4]; 10 µM 0 | [5]; 10 µM 0 | [6]; 10 µM 0 | [7]; 10 µM 0 | [8]; 10 µM 0 | [9]; 10 µM 0 | [10]; 10 µM 0

Cc1ccc(-n2nc(C(C)(C)C)cc2NC(=O)Nc2ccc(OCCN3CCOCC3)c3ccccc23)cc1 [Doramapimod]
inactive: [1]; 10 µM 0 | [2]; 10 µM 0 | [3]; 10 µM 0 | [4]; 10 µM 0 | [5]; 10 µM 0 | [6]; 10 µM 0 | [7]; 10 µM 0 | [8]; 10 µM 0 | [9]; 10 µM 0 | [10]; 10 µM 0

CCCOc1ccc(C=C2SC(=O)NC2=O)cc1
inactive: [1]; 10 µM 0 | [2]; 10 µM 0 | [3]; 10 µM 0 | [4]; 10 µM 0 | [5]; 10 µM 0 | [6]; 10 µM 0 | [7]; 10 µM 0 | [8]; 10 µM 0 | [9]; 10 µM 0 | [10]; 10 µM 0

C[C@@H]1O[C@@H](Oc2c(-c3ccc(O)c(O)c3)oc3cc(O)cc(O)c3c2=O)[C@H](O)[C@H](O)[C@H]1O [Quercitrin]
inactive: [1]; 10 µM 0 | [2]; 10 µM 0 | [3]; 10 µM 0 | [4]; 10 µM 0 | [5]; 10 µM 0 | [6]; 10 µM 0 | [7]; 10 µM 0 | [8]; 10 µM 0 | [9]; 10 µM 0 | [10]; 10 µM 0

Cc1cnc(Nc2ccc(OCCN3CCCC3)cc2)nc1Nc1cccc(S(=O)(=O)NC(C)(C)C)c1 [Fedratinib (hydrochloride hydrate)]
inactive: [1]; 2.5 µM 0 | [2]; 2.5 µM 0 | [3]; 2.5 µM 0 | [4]; 2.5 µM 0 | [5]; 2.5 µM 0 | [6]; 2.5 µM 0 | [7]; 2.5 µM 0 | [8]; 2.5 µM 0 | [9]; 2.5 µM 0 | [10]; 2.5 µM 0

C[C@H]1CN(C2COC2)CCN1c1ccc(Nc2cc(-c3ccnc(N4CCn5c(cc6c5CC(C)(C)C6)C4=O)c3CO)cn(C)c2=O)nc1 [Fenebrutinib]
inactive: [1]; 10 µM 0 | [2]; 10 µM 0 | [3]; 10 µM 0 | [4]; 10 µM 0 | [5]; 10 µM 0 | [6]; 10 µM 0 | [7]; 10 µM 0 | [8]; 10 µM 0 | [9]; 10 µM 0 | [10]; 10 µM 0

Cn1cc(/C=C2\C(=O)Nc3cccnc32)c2ccccc21
inactive: [1]; 10 µM 0 | [2]; 10 µM 0 | [3]; 10 µM 0 | [4]; 10 µM 0 | [5]; 10 µM 0 | [6]; 10 µM 0 | [7]; 10 µM 0 | [8]; 10 µM 0 | [9]; 10 µM 0 | [10]; 10 µM 0

C[C@@H]1CN(C(=O)Nc2ccc(-c3nc(N4CCOCC4)c4cnn(CCCCCCC(=O)NO)c4n3)cc2)CCO1 [HDACs/mTOR Inhibitor 1]
inactive: [1]; 10 µM 0 | [2]; 10 µM 0 | [3]; 10 µM 0 | [4]; 10 µM 0 | [5]; 10 µM 0 | [6]; 10 µM 0 | [7]; 10 µM 0 | [8]; 10 µM 0 | [9]; 10 µM 0 | [10]; 10 µM 0

NC1(C(=O)N[C@@H](CCO)c2ccc(Cl)cc2)CCN(c2nc[nH]c3nccc2-3)CC1 [Capivasertib]
inactive: [1]; 10 µM 0 | [2]; 10 µM 0 | [3]; 10 µM 0 | [4]; 10 µM 0 | [5]; 10 µM 0 | [6]; 10 µM 0 | [7]; 10 µM 0 | [8]; 10 µM 0 | [9]; 10 µM 0 | [10]; 10 µM 0

O=C(O)c1ccc(Nc2ncc3c(n2)-c2ccc(Cl)cc2C(c2c(F)cccc2F)=NC3)cc1
inactive: [1]; 10 µM 0 | [2]; 10 µM 0 | [3]; 10 µM 0 | [4]; 10 µM 0 | [5]; 10 µM 0 | [6]; 10 µM 0 | [7]; 10 µM 0 | [8]; 10 µM 0 | [9]; 10 µM 0 | [10]; 10 µM 0

CCn1c(=O)c(-c2cc(NC(=O)Nc3ccccc3)c(F)cc2Br)cc2cnc(NC)cc21 [Ripretinib]
active: [1]; 10 µM 1
inactive: [2]; 10 µM 0 | [3]; 10 µM 0 | [4]; 10 µM 0 | [5]; 10 µM 0 | [6]; 10 µM 0 | [7]; 10 µM 0 | [8]; 10 µM 0 | [9]; 10 µM 0 | [10]; 10 µM 0

C=CC(=O)N1C[C@@H](Nc2ncnc3[nH]ccc23)CC[C@H]1C [(2R,5S)-Ritlecitinib]
inactive: [1]; 10 µM 0 | [2]; 10 µM 0 | [3]; 10 µM 0 | [4]; 10 µM 0 | [5]; 10 µM 0 | [6]; 10 µM 0 | [7]; 10 µM 0 | [8]; 10 µM 0 | [9]; 10 µM 0 | [10]; 10 µM 0

Nc1ncccc1-c1nc2ccc(-c3ccccc3)nc2n1-c1ccc(C2(N)CCC2)cc1 [Miransertib]
inactive: [1]; 10 µM 0 | [2]; 10 µM 0 | [3]; 10 µM 0 | [5]; 10 µM 0 | [6]; 10 µM 0 | [7]; 10 µM 0 | [8]; 10 µM 0 | [9]; 10 µM 0 | [10]; 10 µM 0
active: [4]; 10 µM 1

Nc1ncnc2n[nH]c(-c3ccc(Oc4ccccc4)cc3)c12 [Ibrutinib deacryloylpiperidine]
inactive: [1]; 10 µM 0 | [2]; 10 µM 0 | [3]; 10 µM 0 | [4]; 10 µM 0 | [5]; 10 µM 0 | [6]; 10 µM 0 | [7]; 10 µM 0 | [8]; 10 µM 0 | [9]; 10 µM 0 | [10]; 10 µM 0

CCc1cc2c(cc1-c1cnn(CC(=O)N(C)C)c1)C(C)(C)c1[nH]c3cc(C#N)ccc3c1C2=O
inactive: [1]; 2.5 µM 0 | [2]; 2.5 µM 0 | [3]; 2.5 µM 0 | [5]; 2.5 µM 0 | [6]; 2.5 µM 0 | [7]; 2.5 µM 0 | [8]; 2.5 µM 0 | [9]; 2.5 µM 0 | [10]; 2.5 µM 0
active: [4]; 2.5 µM 1

COc1cc(N2CCC(N3CCN(C)CC3)CC2)ccc1Nc1ncc(Cl)c(Nc2ccccc2S(=O)(=O)C(C)C)n1
inactive: [1]; 2.5 µM 0 | [2]; 2.5 µM 0 | [3]; 2.5 µM 0 | [4]; 2.5 µM 0 | [5]; 2.5 µM 0 | [6]; 2.5 µM 0 | [7]; 2.5 µM 0 | [8]; 2.5 µM 0 | [9]; 2.5 µM 0 | [10]; 2.5 µM 0

Cc1cc(C)n2c1C=C1C=CC(CCC(=O)NCCN3CCN(C/C=C/C(=O)N4CCCC(n5nc(-c6ccc(Oc7ccccc7)cc6)c6c(N)ncnc65)C4)CC3)=[N+]1[B-]2(F)F (stereo not given)
inactive: [1]; 2.5 µM 0 | [2]; 2.5 µM 0 | [3]; 2.5 µM 0 | [4]; 2.5 µM 0 | [5]; 2.5 µM 0 | [6]; 2.5 µM 0 | [7]; 2.5 µM 0 | [8]; 2.5 µM 0 | [9]; 2.5 µM 0 | [10]; 2.5 µM 0
